Measured values from PubChem BioAssay AID1671190 (National Center for Advancing Translational Sciences (NCATS), 2021).
Among all 580,000 compounds or so, about 6,100 (1.1%) were called active. The shares of active, inactive and inconclusive entries below differ from those in the screen. The call rests on the fitted dose curve; in most records, active means well fitted inhibition curve with a large enough effect; inconclusive means small, poorly fitted or top-dose-only effect, or another doubt; inactive means no such curve, though single readings can be large or run the other way. Potencies of inconclusive entries are doubtful fits and often do not repeat.

Protein sequences, listed by entry. Tags and fused reporters are not part of them.
UniProt P18054, whole entry, looked up: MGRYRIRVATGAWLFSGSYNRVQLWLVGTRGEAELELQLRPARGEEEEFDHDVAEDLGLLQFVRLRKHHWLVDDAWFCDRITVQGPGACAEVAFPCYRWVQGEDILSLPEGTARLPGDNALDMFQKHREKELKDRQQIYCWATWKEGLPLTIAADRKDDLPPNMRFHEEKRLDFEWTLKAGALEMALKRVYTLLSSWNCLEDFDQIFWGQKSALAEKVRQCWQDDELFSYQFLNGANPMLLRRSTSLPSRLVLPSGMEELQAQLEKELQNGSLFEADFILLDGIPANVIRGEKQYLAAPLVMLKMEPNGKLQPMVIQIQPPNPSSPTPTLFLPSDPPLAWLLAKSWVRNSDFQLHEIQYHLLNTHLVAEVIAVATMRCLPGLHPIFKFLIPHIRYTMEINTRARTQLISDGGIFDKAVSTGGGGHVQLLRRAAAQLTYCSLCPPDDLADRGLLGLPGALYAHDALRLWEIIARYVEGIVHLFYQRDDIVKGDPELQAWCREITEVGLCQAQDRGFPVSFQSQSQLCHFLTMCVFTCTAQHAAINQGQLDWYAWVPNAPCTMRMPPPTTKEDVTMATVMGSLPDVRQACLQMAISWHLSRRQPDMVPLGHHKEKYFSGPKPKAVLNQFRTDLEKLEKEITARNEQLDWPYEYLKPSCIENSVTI

Each compound was assayed against Polyunsaturated fatty acid lipoxygenase ALOX12 (Homo sapiens) (UniProt P18054) (assay: Primary qHTS assay for inhibitors of human arachidonate 12S-lipoxygenase (ALOX12): Round 2). Conditions: purified 12hLO, xylenol orange hydroperoxide absorbance; activity change, negative = inhibition: at 108 µM (top of the series) unless noted.
Method in brief: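 Purified human 12hLO (150 nM final) in 25 mM Hepes, 0.01% Triton X-100, pH 7.0 was preincubated 15 min at room temperature with compound. Then 40 uM arachidonic acid was added, 30 min. Hydroperoxide was read by Fe-XO absorbance ratio 573/405 nm.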
On the % scale 0 is the no-effect control and ±100 the full control effect; potency means the concentration at half of the fitted maximal effect.

Compound	Potency	activity change, negative = inhibition
Cc1nnc(NC(=O)c2ccc3c(ccn3C)c2)s1	inactive	
Oc1ccc(N=Cc2sc3ccccc3c2Cl)cc1	inconclusive: 50.1 µM [inhibitor, partial curve, poor fit]	
CSc1ccccc1C(=O)NC(C)C	inactive	
CCOC(=O)c1cc(S(=O)(=O)N2CCN(c3ccc(C(C)=O)cc3)CC2)[nH]n1	inconclusive: 44.7 µM [inhibitor, partial curve]	
CCCCn1c(-c2csc(CCC)c2)n[nH]c1=S	inconclusive: 20 µM [inhibitor, full curve, poor fit]	
CC(=O)Nc1ccc(/C(C)=N/Nc2nc(Nc3ccccc3)nc(N3CCOCC3)n2)cc1	inactive	
CCCC12CN3CC(CCC)(CN(C1)C3c1ccccc1)C2=O (centres undefined)	inconclusive: 89.1 µM [inhibitor, partial curve, poor fit]	
COc1ccc(Cl)cc1NCC(=O)NC(C)(C#N)C(C)C (centres undefined)	inconclusive: 35.5 µM [inhibitor, single point]	
COc1ccc(NC(=O)Nc2c[nH]c(=O)[nH]c2=O)cc1OC	inconclusive: 7.08 µM [inhibitor, full curve, poor fit]	
CSCCC(NC(=O)c1ccc([N+](=O)[O-])cc1Cl)C(=O)OCC(=O)NCCCc1ccccc1 (centres undefined)	inconclusive: 50.1 µM [inhibitor, partial curve, poor fit]	
Cc1ccc(C)c(N(C(=O)c2snc(C(N)=O)c2N)C(C(=O)NCC2CCCO2)c2cccs2)c1 (centres undefined)	inactive	
CCN(CC(=O)Nc1ccc(OC)cc1)C(=O)c1ccc2c(c1)NC(=O)CS2	active: 8.91 µM	
CCCCC[C@@H](C)N1C[C@@H](COCc2ccccc2)Oc2cc(N3CCC[C@@H]3COC)ccc2S1(=O)=O	inconclusive: 44.7 µM [inhibitor, partial curve, poor fit]	
CCCNC(=O)c1ccccc1-c1ncc(-c2ccccc2)o1	inactive	
CC(C)(CO)NCc1ccc(Br)cc1	inactive	
CCOC(=O)C1=C(O)C(=O)C(C(=O)OCC)C1 (centres undefined)	inconclusive: 4.47 µM [inhibitor, full curve, poor fit]	
CC(C)(C(=O)N1CCc2[nH]nc(-c3ccc(F)c(F)c3)c2C1)n1cccc1	inactive	
O=C1CSC2(C(=O)Nc3ccccc32)N1c1cc(Cl)cc(Cl)c1 (centres undefined)	inconclusive: 100 µM [inhibitor, single point]	
C[C@H](c1ccccc1)N1C[C@H](COCc2ccccc2)Oc2cc(N3CC[C@H](O)C3)ccc2S1(=O)=O	inactive	
Cc1cc(C)nc(SCC(=O)N/N=C/c2cccn2-c2cccc(C(F)(F)F)c2)n1	inconclusive: 89.1 µM [inhibitor, partial curve, poor fit]	
Cc1cccc(NC(=O)c2ncn3c2C(=O)NC[C@@H]3C)c1	inconclusive: 89.1 µM [inhibitor, single point]	
COc1ccc(C2(CNC(=O)c3cccc([N+](=O)[O-])c3)CCCCC2)cc1OC	inactive	
Cc1cccc(S(=O)(=O)N2C[C@@H](O)COC[C@@H]3O[C@H](CC(=O)NCCCN4CCOCC4)CC[C@H]32)c1	inconclusive: 79.4 µM [inhibitor, partial curve, poor fit]	

Compound	Potency	activity change, negative = inhibition
O=C(CSc1nc(O)cc(=O)n1-c1ccc(Cl)c(Cl)c1)Nc1ccc(Cl)cc1Cl	inconclusive: 50.1 µM [inhibitor, partial curve, poor fit]	
COc1ccc(C(=O)N/C(=C/c2cccnc2)C(=O)NCc2ccco2)cc1OC	inconclusive: 100 µM [inhibitor, single point]	
Oc1ccc(/C=N/NC(=S)N2CCOCC2)cc1	inconclusive: 79.4 µM [inhibitor, partial curve, poor fit]	
Cc1cc2oc3c(c(=O)c2cc1C)C1(C(=O)N(C)c2ccccc21)N(CCO)C3=O (centres undefined)	inactive	
Fc1ccc(CNC(=S)Nc2ccc(Br)cc2)cc1	inconclusive: 44.7 µM [inhibitor, partial curve, poor fit]	
COC(=O)CNC(=O)c1nc(C(C)(C)C)c2cnccn12		inactive: 8.87% [at 12.5 µM]
COc1ccccc1/C=C/C(=O)c1cc(Br)ccc1OC(=O)c1ccco1	inconclusive: 7.94 µM [inhibitor, full curve, poor fit]	
O=S(=O)(NC[C@H]1O[C@@H](CO)[C@@H](O)[C@H]1N1CCOCC1)c1ccc(Cl)cc1	inconclusive: 39.8 µM [inhibitor, partial curve]	
CN=Cc1nc(-c2ccccc2)oc1O	inconclusive: 100 µM [inhibitor, single point]	
COCCNC(=O)c1onc(CSc2ccccc2)c1C(=O)NCCOC	inconclusive: 25.1 µM [inhibitor, full curve, poor fit]	
NC(=S)Nc1ccc(C(F)(F)F)cc1Cl	inconclusive: 50.1 µM [inhibitor, partial curve, poor fit]	
CC(=O)c1ccc(NC(=O)c2ccc(-c3ccc(Cl)cc3)o2)cc1	inconclusive: 100 µM [inhibitor, partial curve, poor fit]	
COc1ccc(CN(CC(O)COc2cccc3[nH]cc(C)c23)C(C)(C)C)cc1 (centres undefined)	inconclusive: 50.1 µM [inhibitor, partial curve, poor fit]	
S=C(Nc1ccccc1)N1CCOCCOCCN(C(=S)Nc2ccccc2)CCOCCOCC1	inactive	
O=c1cc(O)nc(-c2ccc(Cl)cc2)s1	active: 44.7 µM	
CN1CCCC2(CCN(C(=O)c3cnccn3)CC2)C1	inconclusive: 31.6 µM [inhibitor, single point]	
COCC(=O)Nc1c(C(=O)Nc2ccc3c(c2)OCCO3)oc2ccccc12	inactive	
CCN(CC)S(=O)(=O)c1ccc(=O)n(Cc2cc(=O)oc3cc(C)ccc23)c1	inconclusive: 39.8 µM [inhibitor, partial curve, poor fit]	
Cc1nc(NCCc2ccccc2)sc1C(=O)N(C)C	inconclusive: 89.1 µM [inhibitor, single point]	
O=C(c1cccc(Oc2ccccc2)c1)N1CC[C@@]2(O)CCNC[C@H]2C1	inactive	
Cc1nnc(-c2ccccc2)nc1N(C)C	inactive	
COc1ccc(C(=O)N2CCC(C(=O)Nc3ccc(Cl)cc3)CC2)cc1	inconclusive: 79.4 µM [inhibitor, partial curve, poor fit]	
COc1cccc(O)c1CN1CCC(C(=O)Nc2ccc(-c3cccc(C)c3)cc2)CC1	inconclusive: 44.7 µM [inhibitor, partial curve, poor fit]	

Copied from the list.
`CCCC12CN3CC(CCC)(CN(C1)C3c1ccccc1)C2=O` (centres undefined) | Potency: inconclusive: 89.1 µM [inhibitor, partial curve, poor fit]
`NC(=S)Nc1ccc(C(F)(F)F)cc1Cl` | Potency: inconclusive: 50.1 µM [inhibitor, partial curve, poor fit]
`Oc1ccc(/C=N/NC(=S)N2CCOCC2)cc1` | Potency: inconclusive: 79.4 µM [inhibitor, partial curve, poor fit]

Additional compounds follow:

Compound	Potency	activity change, negative = inhibition
Cc1c(NC(=S)NC(=O)c2ccc(-c3ccc(Cl)cc3)o2)cccc1C(=O)O	active: 28.2 µM	
CCSc1oc(-c2ccco2)nc1S(=O)(=O)c1ccccc1	inconclusive: 39.8 µM [inhibitor, partial curve, poor fit]	
CCOC(=O)Cc1csc(NC(=O)Nc2cccc(OC)c2)n1	inconclusive: 79.4 µM [inhibitor, partial curve, poor fit]	
Oc1ccc(/C=N/NC(=S)N/N=C/c2ccc(O)cc2)cc1	inconclusive: 44.7 µM [inhibitor, partial curve, poor fit]	
N#CCCN1CCN(c2ccc(NS(=O)(=O)c3ccccc3Cl)cc2C(=O)O)CC1	inconclusive: 0.562 µM [inhibitor, full curve, poor fit]	
Fc1ccc(CN2CCSCC2)cc1F	inconclusive: 7.08 µM [inhibitor, full curve, poor fit]	
CN(C)CCN1CCN(C2CN(Cc3cn(Cc4ccc(F)cc4)nn3)S(=O)(=O)C2)CC1 (centres undefined)	inconclusive: 10 µM [inhibitor, full curve]	
CCc1ccc(CN(C)CC(O)COc2cccc3ccccc23)cc1 (centres undefined)	inconclusive: 0.631 µM [inhibitor, full curve, poor fit]	
CC(OC(=O)/C=C/c1ccc2ccccc2n1)C(=O)Nc1ccc(S(N)(=O)=O)cc1 (centres undefined)	inconclusive: 50.1 µM [inhibitor, partial curve, poor fit]	
CC(C)(C)Cc1c(-c2ccc(Cl)cc2)nc2ccc(Br)cn12	inconclusive: 28.2 µM [inhibitor, partial curve]	
O=C(O)C12CC3CC(CC(Br)(C3)C1)C2	inactive	
COc1ccc(CNC(=O)CCc2cccnc2)cc1OC	inactive	
CC1=C[C@@H](CNS(C)(=O)=O)[C@H](C(C)C)C[C@H]1Cc1nc2ccccc2n1C	inactive	
Cc1cc(=O)n2nc(N(C)CC(=O)NCc3cccc(Br)c3)sc2n1	inconclusive: 0.178 µM [inhibitor, full curve, poor fit]	
CCn1c(-c2cccc(Cl)c2)n[nH]c1=S	active: 28.2 µM	
CCOC(=O)c1csc(-c2sccc2Br)n1	inactive	
COC(=O)CCCNC(=O)c1cc(-c2ccncc2)nc2ccccc12	inactive	
COc1ccc(NC(=O)Nc2cccc(F)c2)c(OC)c1	inconclusive: 39.8 µM [inhibitor, partial curve, poor fit]	
O=C(CCC1CCCCC1)NCc1cccnc1	inconclusive: 126 µM [inhibitor, single point]	
CCOC(=O)C1CCN(C(=S)Nc2ccc(CC)cc2)CC1	inactive	
CCn1nnc(NC(=O)C(C)Oc2ccc(Cl)cc2Cl)n1 (centres undefined)		inconclusive: -43.1% [inhibitor]
O=C(c1ccccc1)C(CN1CCCCC1)c1ccccc1 (centres undefined)	active: 44.7 µM	
CNC(=O)OCCSCCS(=O)(=O)c1ccc(Cl)cc1	inconclusive: 89.1 µM [inhibitor, single point]	
